The supplement of paper PMC12823440, “Inhibitors supercharge kinase turnover through native proteolytic circuits” (Nature, 2025)
The list shows a part of the results. Hit calls seldom repeat between salt and free forms of one compound.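 In K562 cells expressing nanoluciferase-fused kinases, luminescence was recorded at 4 h intervals between 2 and 18 h, normalized as percent of control with DMSO at 100% and a positive control at 0%. A significant (2 sigma) signal drop marks a time point as decreased. The authors' rule for a hit is not shown and takes in more than the number of time points.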

Amino acid sequences for entries named in this document (tags omitted). A change or cut given only in a name is not applied to a line headed by its entry.
UniProt P07949, whole entry, looked up: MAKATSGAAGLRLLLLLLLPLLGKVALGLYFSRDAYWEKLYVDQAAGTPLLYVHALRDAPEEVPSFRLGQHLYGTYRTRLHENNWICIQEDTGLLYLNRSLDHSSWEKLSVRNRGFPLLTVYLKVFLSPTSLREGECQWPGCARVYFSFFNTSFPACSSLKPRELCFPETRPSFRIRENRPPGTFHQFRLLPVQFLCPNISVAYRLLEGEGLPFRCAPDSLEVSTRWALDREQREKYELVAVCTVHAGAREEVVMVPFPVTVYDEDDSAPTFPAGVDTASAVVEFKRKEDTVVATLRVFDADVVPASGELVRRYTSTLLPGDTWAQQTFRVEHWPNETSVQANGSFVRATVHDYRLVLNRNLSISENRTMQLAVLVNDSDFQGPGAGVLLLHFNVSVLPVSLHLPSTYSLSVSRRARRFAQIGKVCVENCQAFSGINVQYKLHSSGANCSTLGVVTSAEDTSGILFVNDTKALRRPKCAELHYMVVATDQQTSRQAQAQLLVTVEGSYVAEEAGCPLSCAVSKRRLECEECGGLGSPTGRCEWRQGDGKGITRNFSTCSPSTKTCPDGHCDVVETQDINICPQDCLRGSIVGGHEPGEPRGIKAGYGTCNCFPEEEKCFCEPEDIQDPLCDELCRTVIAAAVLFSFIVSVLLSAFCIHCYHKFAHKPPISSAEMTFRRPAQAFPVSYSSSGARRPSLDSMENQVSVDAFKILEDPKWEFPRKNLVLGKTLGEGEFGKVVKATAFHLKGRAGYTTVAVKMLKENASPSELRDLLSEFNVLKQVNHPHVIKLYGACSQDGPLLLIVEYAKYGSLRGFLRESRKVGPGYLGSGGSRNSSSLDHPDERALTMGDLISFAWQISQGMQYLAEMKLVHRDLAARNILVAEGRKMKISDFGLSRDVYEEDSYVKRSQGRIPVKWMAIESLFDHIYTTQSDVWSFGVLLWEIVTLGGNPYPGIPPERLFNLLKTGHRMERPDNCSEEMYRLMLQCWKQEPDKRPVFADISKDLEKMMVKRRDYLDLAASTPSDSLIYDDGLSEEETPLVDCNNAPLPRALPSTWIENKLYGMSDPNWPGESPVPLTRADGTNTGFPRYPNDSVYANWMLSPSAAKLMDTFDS
UniProt P07949, whole entry M918T, looked up: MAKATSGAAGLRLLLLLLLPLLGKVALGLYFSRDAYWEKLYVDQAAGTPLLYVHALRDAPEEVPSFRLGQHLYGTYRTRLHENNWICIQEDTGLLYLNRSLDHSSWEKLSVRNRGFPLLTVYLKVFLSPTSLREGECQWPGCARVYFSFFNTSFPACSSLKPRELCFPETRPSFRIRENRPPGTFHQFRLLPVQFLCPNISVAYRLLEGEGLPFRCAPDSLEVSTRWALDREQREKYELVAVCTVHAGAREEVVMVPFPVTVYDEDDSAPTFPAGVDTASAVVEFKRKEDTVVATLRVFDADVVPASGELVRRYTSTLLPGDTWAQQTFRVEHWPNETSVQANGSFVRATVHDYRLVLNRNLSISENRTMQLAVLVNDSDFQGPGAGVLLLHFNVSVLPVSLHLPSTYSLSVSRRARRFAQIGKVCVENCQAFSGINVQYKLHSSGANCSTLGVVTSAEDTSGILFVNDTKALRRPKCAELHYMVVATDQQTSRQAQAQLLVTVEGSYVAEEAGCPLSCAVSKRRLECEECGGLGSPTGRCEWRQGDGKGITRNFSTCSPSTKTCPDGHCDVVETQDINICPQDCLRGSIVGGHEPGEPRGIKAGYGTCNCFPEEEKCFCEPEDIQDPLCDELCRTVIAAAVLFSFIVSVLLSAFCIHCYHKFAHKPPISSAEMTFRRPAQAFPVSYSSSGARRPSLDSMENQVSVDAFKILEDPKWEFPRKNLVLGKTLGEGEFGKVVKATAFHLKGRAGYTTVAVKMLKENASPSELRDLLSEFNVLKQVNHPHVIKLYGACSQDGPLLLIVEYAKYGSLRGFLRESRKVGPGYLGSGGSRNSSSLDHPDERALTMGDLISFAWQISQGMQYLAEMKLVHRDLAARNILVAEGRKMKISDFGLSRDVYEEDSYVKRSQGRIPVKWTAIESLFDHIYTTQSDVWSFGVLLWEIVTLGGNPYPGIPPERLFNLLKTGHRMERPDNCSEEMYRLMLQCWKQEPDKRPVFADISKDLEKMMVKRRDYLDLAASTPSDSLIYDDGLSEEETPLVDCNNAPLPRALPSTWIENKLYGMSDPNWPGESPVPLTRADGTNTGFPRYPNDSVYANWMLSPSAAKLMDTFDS
UniProt Q9BRS2: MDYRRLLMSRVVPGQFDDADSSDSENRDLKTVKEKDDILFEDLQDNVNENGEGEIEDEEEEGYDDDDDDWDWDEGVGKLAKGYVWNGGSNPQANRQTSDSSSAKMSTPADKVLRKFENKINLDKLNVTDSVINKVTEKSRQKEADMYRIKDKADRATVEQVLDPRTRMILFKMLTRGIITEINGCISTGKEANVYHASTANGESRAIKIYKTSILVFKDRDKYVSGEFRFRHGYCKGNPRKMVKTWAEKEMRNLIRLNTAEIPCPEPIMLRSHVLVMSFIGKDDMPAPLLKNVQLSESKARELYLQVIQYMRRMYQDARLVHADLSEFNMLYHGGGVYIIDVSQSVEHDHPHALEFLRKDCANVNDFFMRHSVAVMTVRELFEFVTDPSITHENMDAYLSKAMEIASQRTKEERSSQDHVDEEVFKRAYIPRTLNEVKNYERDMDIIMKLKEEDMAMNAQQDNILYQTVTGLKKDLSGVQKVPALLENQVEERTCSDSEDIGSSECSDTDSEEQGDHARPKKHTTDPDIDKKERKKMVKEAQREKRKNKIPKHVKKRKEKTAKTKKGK
UniProt Q01974, whole entry: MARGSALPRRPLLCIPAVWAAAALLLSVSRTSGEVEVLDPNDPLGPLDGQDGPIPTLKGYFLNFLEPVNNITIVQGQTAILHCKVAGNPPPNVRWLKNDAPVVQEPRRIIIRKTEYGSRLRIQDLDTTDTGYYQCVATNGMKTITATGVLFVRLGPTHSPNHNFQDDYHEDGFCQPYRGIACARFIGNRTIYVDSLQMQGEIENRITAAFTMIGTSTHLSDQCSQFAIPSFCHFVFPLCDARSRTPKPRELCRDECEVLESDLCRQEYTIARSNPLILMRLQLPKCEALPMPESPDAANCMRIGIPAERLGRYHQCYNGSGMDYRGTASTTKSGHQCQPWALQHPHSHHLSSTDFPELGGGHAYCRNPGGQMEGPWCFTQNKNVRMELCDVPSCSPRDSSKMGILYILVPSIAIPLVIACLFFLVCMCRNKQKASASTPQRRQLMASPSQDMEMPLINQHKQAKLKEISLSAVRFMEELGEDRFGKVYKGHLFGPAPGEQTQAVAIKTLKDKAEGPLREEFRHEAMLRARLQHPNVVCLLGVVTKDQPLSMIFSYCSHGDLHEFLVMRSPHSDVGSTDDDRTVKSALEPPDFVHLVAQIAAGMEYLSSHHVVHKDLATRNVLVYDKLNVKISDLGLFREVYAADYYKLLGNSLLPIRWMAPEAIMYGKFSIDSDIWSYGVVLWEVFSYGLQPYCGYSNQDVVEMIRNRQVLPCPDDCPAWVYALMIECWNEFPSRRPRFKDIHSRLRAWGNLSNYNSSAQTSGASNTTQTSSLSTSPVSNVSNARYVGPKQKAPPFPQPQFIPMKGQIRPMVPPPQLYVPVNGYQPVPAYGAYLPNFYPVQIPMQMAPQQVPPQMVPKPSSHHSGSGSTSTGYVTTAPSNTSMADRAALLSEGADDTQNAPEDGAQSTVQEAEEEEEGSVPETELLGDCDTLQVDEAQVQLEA
UniProt Q9NYA1, whole entry: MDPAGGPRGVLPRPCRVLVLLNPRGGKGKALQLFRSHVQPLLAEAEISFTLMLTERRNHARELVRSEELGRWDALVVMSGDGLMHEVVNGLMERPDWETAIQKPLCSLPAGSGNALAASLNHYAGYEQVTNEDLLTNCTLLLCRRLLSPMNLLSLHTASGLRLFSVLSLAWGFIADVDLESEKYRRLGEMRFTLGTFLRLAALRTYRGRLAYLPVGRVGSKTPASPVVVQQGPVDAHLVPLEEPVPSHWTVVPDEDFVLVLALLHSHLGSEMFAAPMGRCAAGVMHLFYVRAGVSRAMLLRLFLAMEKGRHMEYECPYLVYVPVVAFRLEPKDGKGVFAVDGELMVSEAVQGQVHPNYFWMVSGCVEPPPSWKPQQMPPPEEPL
UniProt P42680: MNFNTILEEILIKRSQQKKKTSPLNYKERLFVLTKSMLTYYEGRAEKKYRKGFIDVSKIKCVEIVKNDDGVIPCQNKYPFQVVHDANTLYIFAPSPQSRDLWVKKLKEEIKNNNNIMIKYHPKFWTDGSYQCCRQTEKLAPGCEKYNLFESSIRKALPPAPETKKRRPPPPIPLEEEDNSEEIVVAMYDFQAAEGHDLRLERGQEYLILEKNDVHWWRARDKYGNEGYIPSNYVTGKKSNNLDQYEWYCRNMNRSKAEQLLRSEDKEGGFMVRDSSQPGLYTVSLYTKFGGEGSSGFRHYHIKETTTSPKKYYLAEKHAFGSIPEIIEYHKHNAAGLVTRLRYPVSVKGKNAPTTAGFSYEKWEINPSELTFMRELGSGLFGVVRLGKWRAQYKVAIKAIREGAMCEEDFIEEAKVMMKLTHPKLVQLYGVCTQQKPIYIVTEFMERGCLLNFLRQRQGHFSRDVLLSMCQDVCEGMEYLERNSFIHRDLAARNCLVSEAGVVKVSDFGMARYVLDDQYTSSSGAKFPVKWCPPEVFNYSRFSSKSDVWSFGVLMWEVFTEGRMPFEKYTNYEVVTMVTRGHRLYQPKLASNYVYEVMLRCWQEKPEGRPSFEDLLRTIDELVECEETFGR
UniProt Q6PHR2: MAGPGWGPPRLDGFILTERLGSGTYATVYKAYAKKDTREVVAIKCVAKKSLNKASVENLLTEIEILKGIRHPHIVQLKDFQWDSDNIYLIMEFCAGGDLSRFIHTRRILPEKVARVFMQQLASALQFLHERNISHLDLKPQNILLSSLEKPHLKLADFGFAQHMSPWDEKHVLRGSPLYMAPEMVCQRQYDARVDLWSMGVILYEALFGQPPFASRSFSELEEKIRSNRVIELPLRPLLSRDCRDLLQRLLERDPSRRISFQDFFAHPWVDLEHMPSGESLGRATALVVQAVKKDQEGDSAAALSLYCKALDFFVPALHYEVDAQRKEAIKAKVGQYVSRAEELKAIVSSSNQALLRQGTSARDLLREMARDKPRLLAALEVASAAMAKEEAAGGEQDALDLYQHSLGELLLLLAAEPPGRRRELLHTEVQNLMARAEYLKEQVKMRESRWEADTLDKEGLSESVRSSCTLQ
UniProt P43403: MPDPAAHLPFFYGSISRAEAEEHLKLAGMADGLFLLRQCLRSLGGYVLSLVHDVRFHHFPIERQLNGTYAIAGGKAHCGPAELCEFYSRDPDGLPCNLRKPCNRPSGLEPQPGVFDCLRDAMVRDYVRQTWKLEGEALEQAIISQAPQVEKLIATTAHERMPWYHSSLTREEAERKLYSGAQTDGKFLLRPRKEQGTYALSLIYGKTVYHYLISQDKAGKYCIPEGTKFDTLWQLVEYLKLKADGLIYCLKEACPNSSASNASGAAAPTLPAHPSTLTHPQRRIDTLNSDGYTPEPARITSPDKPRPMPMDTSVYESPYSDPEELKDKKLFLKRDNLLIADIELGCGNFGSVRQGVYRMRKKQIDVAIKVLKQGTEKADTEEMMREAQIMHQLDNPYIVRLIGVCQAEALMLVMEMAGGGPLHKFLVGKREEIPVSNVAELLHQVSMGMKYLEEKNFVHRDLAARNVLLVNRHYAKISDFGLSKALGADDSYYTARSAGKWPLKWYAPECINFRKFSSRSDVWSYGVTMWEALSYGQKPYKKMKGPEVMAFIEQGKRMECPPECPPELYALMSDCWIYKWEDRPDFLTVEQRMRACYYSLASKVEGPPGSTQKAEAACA
UniProt P11802: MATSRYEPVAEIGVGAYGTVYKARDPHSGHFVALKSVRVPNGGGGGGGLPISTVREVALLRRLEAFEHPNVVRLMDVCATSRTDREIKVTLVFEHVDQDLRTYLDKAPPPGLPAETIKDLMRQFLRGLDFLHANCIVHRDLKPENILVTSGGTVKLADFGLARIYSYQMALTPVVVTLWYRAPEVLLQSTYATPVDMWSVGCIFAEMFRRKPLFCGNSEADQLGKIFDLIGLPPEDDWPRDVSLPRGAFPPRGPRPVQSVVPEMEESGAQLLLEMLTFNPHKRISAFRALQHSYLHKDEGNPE
UniProt P50613: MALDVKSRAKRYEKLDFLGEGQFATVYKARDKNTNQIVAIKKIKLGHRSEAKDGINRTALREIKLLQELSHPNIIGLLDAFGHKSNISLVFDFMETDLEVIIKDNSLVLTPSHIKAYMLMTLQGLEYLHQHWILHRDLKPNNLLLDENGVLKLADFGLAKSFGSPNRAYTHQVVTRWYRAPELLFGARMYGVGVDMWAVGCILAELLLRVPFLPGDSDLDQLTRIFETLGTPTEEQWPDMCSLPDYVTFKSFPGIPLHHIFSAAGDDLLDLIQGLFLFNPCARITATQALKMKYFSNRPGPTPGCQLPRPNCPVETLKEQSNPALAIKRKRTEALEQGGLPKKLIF

How the values were obtained:
Details in all cases: K562, 2-18 h
[1] = molecular target: RET (UniProt P07949); experiment: kinase-Nluc reporter destabilization hit call (1 = scored as downregulated) (binary); higher = compound decreases kinase abundance
[2] = molecular target: RET_M918T (clone: RET_mut) (UniProt P07949); experiment: as above
[3] = molecular target: RIOK1 (UniProt Q9BRS2); experiment: as above
[4] = molecular target: RIPK1 (UniProt Q13546); experiment: as above
[5] = molecular target: RIPK2 (UniProt O43353); experiment: as above
[6] = molecular target: ROR2 (UniProt Q01974); experiment: as above
[7] = molecular target: RPS6KA1 (UniProt Q15418); experiment: as above
[8] = molecular target: SPHK1 (UniProt Q9NYA1); experiment: as above
[9] = molecular target: SRC (UniProt P12931); experiment: as above
[10] = molecular target: STK24 (UniProt Q9Y6E0); experiment: as above
[11] = molecular target: STK38 (UniProt Q15208); experiment: as above
[12] = molecular target: SYK (UniProt P43405); experiment: as above
[13] = molecular target: TEC (UniProt P42680); experiment: as above
[14] = molecular target: TYK2 (UniProt P29597); experiment: as above
[15] = molecular target: ULK3 (UniProt Q6PHR2); experiment: as above
[16] = molecular target: YES1 (UniProt P07947); experiment: as above
[17] = molecular target: ZAK (UniProt Q9NYL2); experiment: as above
[18] = molecular target: ZAP70 (UniProt P43403); experiment: as above
[19] = molecular target: CDK4 (UniProt P11802); experiment: number of time points (of 4; 2 h point missing) at which kinase-Nluc abundance scored as decreased, DMSO-normalised (count); higher = more persistent destabilization
[20] = molecular target: CDK7 (UniProt P50613); experiment: as above

Row | Compound | kinase-Nluc reporter destabilization hit call ([1]; 2.5 µM) | kinase-Nluc reporter destabilization hit call ([2]; 2.5 µM) | kinase-Nluc reporter destabilization hit call ([3]; 2.5 µM) | kinase-Nluc reporter destabilization hit call ([4]; 2.5 µM) | kinase-Nluc reporter destabilization hit call ([5]; 2.5 µM) | kinase-Nluc reporter destabilization hit call ([6]; 2.5 µM) | kinase-Nluc reporter destabilization hit call ([7]; 2.5 µM) | kinase-Nluc reporter destabilization hit call ([8]; 2.5 µM) | kinase-Nluc reporter destabilization hit call ([9]; 2.5 µM) | kinase-Nluc reporter destabilization hit call ([10]; 2.5 µM) | kinase-Nluc reporter destabilization hit call ([11]; 2.5 µM) | kinase-Nluc reporter destabilization hit call ([12]; 2.5 µM) | kinase-Nluc reporter destabilization hit call ([13]; 2.5 µM) | kinase-Nluc reporter destabilization hit call ([14]; 2.5 µM) | kinase-Nluc reporter destabilization hit call ([15]; 2.5 µM) | kinase-Nluc reporter destabilization hit call ([16]; 2.5 µM) | kinase-Nluc reporter destabilization hit call ([17]; 2.5 µM) | kinase-Nluc reporter destabilization hit call ([18]; 2.5 µM) | number of time points ([19]; 2.5 µM) | number of time points ([20]; 2.5 µM) | kinase-Nluc reporter destabilization hit call ([1]; 10 µM) | kinase-Nluc reporter destabilization hit call ([2]; 10 µM) | kinase-Nluc reporter destabilization hit call ([3]; 10 µM) | kinase-Nluc reporter destabilization hit call ([4]; 10 µM) | kinase-Nluc reporter destabilization hit call ([5]; 10 µM) | kinase-Nluc reporter destabilization hit call ([6]; 10 µM) | kinase-Nluc reporter destabilization hit call ([7]; 10 µM) | kinase-Nluc reporter destabilization hit call ([8]; 10 µM) | kinase-Nluc reporter destabilization hit call ([9]; 10 µM) | kinase-Nluc reporter destabilization hit call ([10]; 10 µM) | kinase-Nluc reporter destabilization hit call ([11]; 10 µM) | kinase-Nluc reporter destabilization hit call ([12]; 10 µM) | kinase-Nluc reporter destabilization hit call ([13]; 10 µM) | kinase-Nluc reporter destabilization hit call ([14]; 10 µM) | kinase-Nluc reporter destabilization hit call ([15]; 10 µM) | kinase-Nluc reporter destabilization hit call ([16]; 10 µM) | kinase-Nluc reporter destabilization hit call ([17]; 10 µM) | kinase-Nluc reporter destabilization hit call ([18]; 10 µM) | number of time points ([19]; 10 µM) | number of time points ([20]; 10 µM)
1 | Cc1cnc(Nc2ccc(OCCN3CCCC3)cc2)nc1Nc1cccc(S(=O)(=O)NC(C)(C)C)c1 [Fedratinib] | inactive: 0 | inactive: 0 | inactive: 0 | inactive: 0 | inactive: 0 | inactive: 0 | inactive: 0 | inactive: 0 | inactive: 0 | inactive: 0 | inactive: 0 | inactive: 0 | inactive: 0 | inactive: 0 | inactive: 0 | inactive: 0 | inactive: 0 | inactive: 0 | 0 | 0 |  |  |  |  |  |  |  |  |  |  |  |  |  |  |  |  |  |  |  | 
2 | O=C(Nc1cccc(Cl)c1)Nc1ncc(CCNc2ncnc3ccsc23)s1 [SNS-314 (mesylate)] |  |  |  |  |  |  |  |  |  |  |  |  |  |  |  |  |  |  |  |  | inactive: 0 | inactive: 0 | inactive: 0 | inactive: 0 | inactive: 0 | inactive: 0 | inactive: 0 | inactive: 0 | inactive: 0 | inactive: 0 | inactive: 0 | inactive: 0 | inactive: 0 | inactive: 0 | inactive: 0 | inactive: 0 | inactive: 0 | inactive: 0 | 0 | 3
3 | C[C@H]1Oc2cc(cnc2N)-c2c(nn(C)c2C#N)CN(C)C(=O)c2ccc(F)cc21 [Lorlatinib] |  |  |  |  |  |  |  |  |  |  |  |  |  |  |  |  |  |  |  |  | inactive: 0 | inactive: 0 | inactive: 0 | inactive: 0 | inactive: 0 | inactive: 0 | inactive: 0 | inactive: 0 | inactive: 0 | inactive: 0 | inactive: 0 | inactive: 0 | inactive: 0 | inactive: 0 | inactive: 0 | inactive: 0 | inactive: 0 | inactive: 0 | 0 | 0
4 | CN1CCN(c2nc(C3=C(c4c[nH]c5ccccc45)C(=O)NC3=O)c3ccccc3n2)CC1 [Sotrastaurin] | inactive: 0 | inactive: 0 | inactive: 0 | inactive: 0 | inactive: 0 | inactive: 0 | inactive: 0 | inactive: 0 | inactive: 0 | inactive: 0 | inactive: 0 | inactive: 0 | inactive: 0 | inactive: 0 | inactive: 0 | inactive: 0 | inactive: 0 | inactive: 0 | 0 | 0 |  |  |  |  |  |  |  |  |  |  |  |  |  |  |  |  |  |  |  | 
5 | C[C@H]1CN(C2COC2)CCN1c1ccc(Nc2cc(-c3ccnc(N4CCn5c(cc6c5CC(C)(C)C6)C4=O)c3CO)cn(C)c2=O)nc1 [Fenebrutinib] |  |  |  |  |  |  |  |  |  |  |  |  |  |  |  |  |  |  |  |  | inactive: 0 | inactive: 0 | inactive: 0 | inactive: 0 | inactive: 0 | inactive: 0 | inactive: 0 | inactive: 0 | inactive: 0 | inactive: 0 | inactive: 0 | inactive: 0 | inactive: 0 | inactive: 0 | inactive: 0 | inactive: 0 | inactive: 0 | inactive: 0 | 0 | 0
6 | COc1ccc(-c2cc(C(=O)NN=C(C)c3ccc(OC)c(OC)c3)[nH]n2)cc1 |  |  |  |  |  |  |  |  |  |  |  |  |  |  |  |  |  |  |  |  | inactive: 0 | inactive: 0 | inactive: 0 | inactive: 0 | inactive: 0 | inactive: 0 | inactive: 0 | inactive: 0 | inactive: 0 | inactive: 0 | inactive: 0 | inactive: 0 | inactive: 0 | inactive: 0 | inactive: 0 | inactive: 0 | inactive: 0 | inactive: 0 | 0 | 0
7 | CC(C)(C)n1nc(-c2ccc(Cl)cc2)c2c(N)ncnc21 |  |  |  |  |  |  |  |  |  |  |  |  |  |  |  |  |  |  |  |  | inactive: 0 | inactive: 0 | inactive: 0 | inactive: 0 | inactive: 0 | inactive: 0 | inactive: 0 | inactive: 0 | inactive: 0 | inactive: 0 | inactive: 0 | inactive: 0 | inactive: 0 | inactive: 0 | inactive: 0 | inactive: 0 | inactive: 0 | inactive: 0 | 0 | 0
8 | Cc1ccc(Nc2nccc(N(C)c3ccc4c(C)n(C)nc4c3)n2)cc1S(N)(=O)=O [Pazopanib] |  |  |  |  |  |  |  |  |  |  |  |  |  |  |  |  |  |  |  |  | inactive: 0 | inactive: 0 | inactive: 0 | inactive: 0 | inactive: 0 | inactive: 0 | inactive: 0 | inactive: 0 | inactive: 0 | inactive: 0 | inactive: 0 | inactive: 0 | inactive: 0 | inactive: 0 | inactive: 0 | inactive: 0 | inactive: 0 | inactive: 0 | 0 | 0
9 | C=CC(=O)N1CCC([C@@H]2CCNc3c(C(N)=O)c(-c4ccc(Oc5ccccc5)cc4)nn32)CC1 [Zanubrutinib] |  |  |  |  |  |  |  |  |  |  |  |  |  |  |  |  |  |  |  |  | inactive: 0 | inactive: 0 | inactive: 0 | inactive: 0 | inactive: 0 | inactive: 0 | inactive: 0 | inactive: 0 | inactive: 0 | inactive: 0 | inactive: 0 | inactive: 0 | inactive: 0 | inactive: 0 | inactive: 0 | inactive: 0 | inactive: 0 | inactive: 0 | 0 | 0
10 | NCCNc1ncc(C(N)=O)c(Nc2cccc(C(F)(F)F)c2)n1 [Syk Inhibitor II] |  |  |  |  |  |  |  |  |  |  |  |  |  |  |  |  |  |  |  |  | inactive: 0 | inactive: 0 | inactive: 0 | inactive: 0 | inactive: 0 | inactive: 0 | inactive: 0 | inactive: 0 | inactive: 0 | inactive: 0 | inactive: 0 | inactive: 0 | inactive: 0 | inactive: 0 | inactive: 0 | inactive: 0 | inactive: 0 | inactive: 0 | 0 | 0
